Measurements published in PubChem BioAssay AID1242 (PCMD, 2008).
Some of the results follow.

Experiment: Candida albicans biofilm persister killing – 4-compound mixtures, primary screen (AID 1242);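 also: compounds exposed to preformed 24 h biofilms for 48 h; 0% = untreated biofilm control and 100% = clotrimazole plus chlorhexidine kill blank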
Settings: C. albicans biofilm persisters + clotrimazole, fluorescence viability; primary screen in compound mixtures of four per well; measured here: individual compound retest; at 61 µM; stronger effect = higher value

| Structure (SMILES) | inhibition |
| --- | --- |
| CN(C)C(=O)Oc1noc2ccccc12 | -15.3% |
| Cc1ccc(OP(=O)(Nc2nccs2)Oc2ccc(C)cc2)cc1 | -14.2% |
| O=[N+]([O-])c1cc([N+](=O)[O-])c(Nc2ccccn2)c([N+](=O)[O-])c1 | 16.4% |
